Assay results taken from PMC5440813.
No constants are given. Whether binding was seen depends on the method and setting. In cells and extracts the contact can be indirect. A yes stands for co-enrichment or nearness to the bait. Other partners may have been found.

Tests used:
[1] = biological target: T1, isocitrate dehydrogenase (IDH) subunit IDH1 (Arabidopsis thaliana) (UniProt Q8LFC0); experiment: affinity purification with mass spectrometry + split reporter + two-hybrid; compromise score that integrates the AP-MS, split-LUC and Y2H data of the 38 x 38 screen (STATIS-like); interaction: compromise score above the threshold of about 0.6
T1 sequence: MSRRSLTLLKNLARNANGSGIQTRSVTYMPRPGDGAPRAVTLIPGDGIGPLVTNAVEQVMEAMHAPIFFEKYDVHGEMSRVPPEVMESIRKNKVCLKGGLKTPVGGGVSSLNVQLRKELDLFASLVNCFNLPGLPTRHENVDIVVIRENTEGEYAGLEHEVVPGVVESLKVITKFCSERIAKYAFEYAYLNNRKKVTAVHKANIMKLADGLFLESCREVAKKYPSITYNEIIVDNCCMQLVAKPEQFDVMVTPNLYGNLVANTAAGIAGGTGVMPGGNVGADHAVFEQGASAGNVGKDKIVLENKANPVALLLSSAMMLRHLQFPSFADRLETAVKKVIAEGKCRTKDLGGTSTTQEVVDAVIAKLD

[2] = biological target: T2, isocitrate dehydrogenase (IDH) subunit IDH2 (Arabidopsis thaliana) (UniProt P93032); experiment: as above
T2 sequence: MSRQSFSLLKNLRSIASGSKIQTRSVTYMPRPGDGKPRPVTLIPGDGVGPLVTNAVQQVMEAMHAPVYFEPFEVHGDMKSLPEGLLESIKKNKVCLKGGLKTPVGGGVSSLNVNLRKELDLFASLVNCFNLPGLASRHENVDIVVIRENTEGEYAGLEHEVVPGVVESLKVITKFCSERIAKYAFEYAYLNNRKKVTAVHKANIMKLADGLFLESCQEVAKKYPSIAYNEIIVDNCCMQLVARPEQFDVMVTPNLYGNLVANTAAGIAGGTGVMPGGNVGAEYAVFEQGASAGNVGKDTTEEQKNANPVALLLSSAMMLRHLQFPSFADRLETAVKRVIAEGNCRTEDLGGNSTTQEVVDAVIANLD

[3] = biological target: T3, aconitase 3 (ACO3) (Arabidopsis thaliana) (UniProt Q9SIB9); experiment: affinity purification with mass spectrometry; C-terminal GFP-tagged bait expressed in PSB-D Arabidopsis cell culture; extract (25 mM Tris-HCl pH 7.5, 15 mM MgCl2, 5 mM EGTA, 0.1% NP40) on GFP-Trap_A beads 1 h at 4 °C, washes with 0, 250 and 500 mM NaCl; LC-MS/MS, FC-A score (SAINT); positive: top 10% of scores (3.9)
T3 sequence: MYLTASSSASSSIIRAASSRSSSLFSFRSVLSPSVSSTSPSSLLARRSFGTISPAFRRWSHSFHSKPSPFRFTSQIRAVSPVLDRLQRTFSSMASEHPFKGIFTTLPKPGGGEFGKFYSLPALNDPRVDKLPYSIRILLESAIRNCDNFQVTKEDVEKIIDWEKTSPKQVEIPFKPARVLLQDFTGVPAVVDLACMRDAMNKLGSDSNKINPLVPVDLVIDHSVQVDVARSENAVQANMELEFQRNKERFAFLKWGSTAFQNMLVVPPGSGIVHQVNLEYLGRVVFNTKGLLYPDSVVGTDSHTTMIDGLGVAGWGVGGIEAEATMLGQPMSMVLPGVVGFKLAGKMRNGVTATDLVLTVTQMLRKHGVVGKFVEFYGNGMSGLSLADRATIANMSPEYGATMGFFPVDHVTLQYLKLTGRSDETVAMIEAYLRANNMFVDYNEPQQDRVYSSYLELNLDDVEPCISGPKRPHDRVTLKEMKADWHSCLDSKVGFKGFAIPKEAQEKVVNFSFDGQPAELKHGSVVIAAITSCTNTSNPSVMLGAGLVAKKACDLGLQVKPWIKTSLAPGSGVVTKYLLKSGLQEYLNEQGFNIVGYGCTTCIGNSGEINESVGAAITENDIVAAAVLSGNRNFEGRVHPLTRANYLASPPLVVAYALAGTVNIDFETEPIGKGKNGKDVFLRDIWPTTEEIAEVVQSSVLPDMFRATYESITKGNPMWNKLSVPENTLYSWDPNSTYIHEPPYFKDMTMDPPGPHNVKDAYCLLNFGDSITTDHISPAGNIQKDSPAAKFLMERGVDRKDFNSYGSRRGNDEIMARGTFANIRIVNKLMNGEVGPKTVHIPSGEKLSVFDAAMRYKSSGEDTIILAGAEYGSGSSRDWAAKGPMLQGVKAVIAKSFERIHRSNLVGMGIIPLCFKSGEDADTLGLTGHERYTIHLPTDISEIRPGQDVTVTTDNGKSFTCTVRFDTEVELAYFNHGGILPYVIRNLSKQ

[4] = biological target: T4, aconitase 2 (ACO2) (Arabidopsis thaliana) (UniProt Q94A28); experiment: affinity purification with mass spectrometry + split reporter + two-hybrid; compromise score that integrates the AP-MS, split-LUC and Y2H data of the 38 x 38 screen (STATIS-like); interaction: compromise score above the threshold of about 0.6
T4 sequence: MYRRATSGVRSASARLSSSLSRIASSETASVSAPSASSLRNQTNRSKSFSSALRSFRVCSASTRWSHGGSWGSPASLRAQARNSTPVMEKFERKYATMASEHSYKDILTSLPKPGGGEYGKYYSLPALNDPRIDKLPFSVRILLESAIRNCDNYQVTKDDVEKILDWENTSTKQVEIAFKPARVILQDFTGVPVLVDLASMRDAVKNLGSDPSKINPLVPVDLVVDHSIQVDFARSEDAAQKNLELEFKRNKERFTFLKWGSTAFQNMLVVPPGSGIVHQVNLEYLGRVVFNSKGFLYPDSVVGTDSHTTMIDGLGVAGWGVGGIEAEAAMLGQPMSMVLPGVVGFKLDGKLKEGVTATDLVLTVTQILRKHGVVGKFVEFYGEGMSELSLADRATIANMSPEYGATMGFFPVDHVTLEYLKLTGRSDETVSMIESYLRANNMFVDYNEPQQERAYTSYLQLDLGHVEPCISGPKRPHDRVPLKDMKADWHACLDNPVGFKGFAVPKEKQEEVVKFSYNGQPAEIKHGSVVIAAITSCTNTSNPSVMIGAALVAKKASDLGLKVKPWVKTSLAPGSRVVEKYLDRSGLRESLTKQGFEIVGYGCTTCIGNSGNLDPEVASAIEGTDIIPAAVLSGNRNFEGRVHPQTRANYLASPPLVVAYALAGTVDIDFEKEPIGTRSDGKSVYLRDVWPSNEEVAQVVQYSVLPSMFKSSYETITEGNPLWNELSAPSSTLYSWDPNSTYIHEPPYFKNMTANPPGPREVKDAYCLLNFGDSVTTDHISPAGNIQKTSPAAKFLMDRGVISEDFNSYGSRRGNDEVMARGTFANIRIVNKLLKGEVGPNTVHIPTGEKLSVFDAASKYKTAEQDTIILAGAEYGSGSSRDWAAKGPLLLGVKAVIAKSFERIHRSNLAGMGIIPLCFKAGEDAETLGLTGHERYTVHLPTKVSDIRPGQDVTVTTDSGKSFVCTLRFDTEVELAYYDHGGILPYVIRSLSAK

[5] = biological target: T3, aconitase 3 (ACO3) (Arabidopsis thaliana); experiment: as above
[6] = biological target: T5, lipoamide dehydrogenase (LPD) 2 (Arabidopsis thaliana) (UniProt Q9M5K2); experiment: as above
T5 sequence: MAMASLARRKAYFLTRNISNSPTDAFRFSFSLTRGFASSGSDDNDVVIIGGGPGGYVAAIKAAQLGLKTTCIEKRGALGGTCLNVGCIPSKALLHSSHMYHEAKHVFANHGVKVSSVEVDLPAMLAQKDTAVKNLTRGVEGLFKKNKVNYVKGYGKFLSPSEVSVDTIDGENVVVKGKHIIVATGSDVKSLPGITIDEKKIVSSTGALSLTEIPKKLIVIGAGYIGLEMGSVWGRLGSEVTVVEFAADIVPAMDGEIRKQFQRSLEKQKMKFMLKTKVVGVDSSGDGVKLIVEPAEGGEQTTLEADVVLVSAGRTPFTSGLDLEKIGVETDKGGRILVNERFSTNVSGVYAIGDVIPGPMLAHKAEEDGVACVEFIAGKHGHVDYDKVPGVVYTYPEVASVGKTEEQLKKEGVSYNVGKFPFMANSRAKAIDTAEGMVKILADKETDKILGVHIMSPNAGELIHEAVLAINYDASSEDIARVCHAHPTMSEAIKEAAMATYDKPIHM

[7] = biological target: oxoglutarate dehydrogenase complex (ODC) subunit ODC2-1 (Arabidopsis thaliana); experiment: as above

Measured: binding

B1: aconitase 2 (ACO2) (enzyme, UniProt Q94A28 1-995)
chain: MYRRATSGVRSASARLSSSLSRIASSETASVSAPSASSLRNQTNRSKSFSSALRSFRVCSASTRWSHGGSWGSPASLRAQARNSTPVMEKFERKYATMASEHSYKDILTSLPKPGGGEYGKYYSLPALNDPRIDKLPFSVRILLESAIRNCDNYQVTKDDVEKILDWENTSTKQVEIAFKPARVILQDFTGVPVLVDLASMRDAVKNLGSDPSKINPLVPVDLVVDHSIQVDFARSEDAAQKNLELEFKRNKERFTFLKWGSTAFQNMLVVPPGSGIVHQVNLEYLGRVVFNSKGFLYPDSVVGTDSHTTMIDGLGVAGWGVGGIEAEAAMLGQPMSMVLPGVVGFKLDGKLKEGVTATDLVLTVTQILRKHGVVGKFVEFYGEGMSELSLADRATIANMSPEYGATMGFFPVDHVTLEYLKLTGRSDETVSMIESYLRANNMFVDYNEPQQERAYTSYLQLDLGHVEPCISGPKRPHDRVPLKDMKADWHACLDNPVGFKGFAVPKEKQEEVVKFSYNGQPAEIKHGSVVIAAITSCTNTSNPSVMIGAALVAKKASDLGLKVKPWVKTSLAPGSRVVEKYLDRSGLRESLTKQGFEIVGYGCTTCIGNSGNLDPEVASAIEGTDIIPAAVLSGNRNFEGRVHPQTRANYLASPPLVVAYALAGTVDIDFEKEPIGTRSDGKSVYLRDVWPSNEEVAQVVQYSVLPSMFKSSYETITEGNPLWNELSAPSSTLYSWDPNSTYIHEPPYFKNMTANPPGPREVKDAYCLLNFGDSVTTDHISPAGNIQKTSPAAKFLMDRGVISEDFNSYGSRRGNDEVMARGTFANIRIVNKLLKGEVGPNTVHIPTGEKLSVFDAASKYKTAEQDTIILAGAEYGSGSSRDWAAKGPLLLGVKAVIAKSFERIHRSNLAGMGIIPLCFKAGEDAETLGLTGHERYTVHLPTKVSDIRPGQDVTVTTDSGKSFVCTLRFDTEVELAYYDHGGILPYVIRSLSAK
binds: [1] | [2] | [3]

B2: citrate synthase (CSY) 4 (enzyme, UniProt P20115 1-474)
chain: MVFFRSVSAFTRLRSRVQGQQSSLSNSVRWIQMQSSTDLDLKSQLQELIPEQQDRLKKLKSEHGKVQLGNITVDMVIGGMRGMTGLLWETSLLDPEEGIRFRGLSIPECQKVLPTAQSGAEPLPEGLLWLLLTGKVPSKEQVEALSKDLANRAAVPDYVYNAIDALPSTAHPMTQFASGVMALQVQSEFQKAYENGIHKSKFWEPTYEDCLNLIARVPVVAAYVYRRMYKNGDSIPSDKSLDYGANFSHMLGFDDEKVKELMRLYITIHSDHEGGNVSAHTGHLVGSALSDPYLSFAAALNGLAGPLHGLANQEVLLWIKSVVEECGEDISKEQLKEYVWKTLNSGKVIPGYGHGVLRNTDPRYVCQREFALKHLPDDPLFQLVSKLYEVVPPVLTELGKVKNPWPNVDAHSGVLLNHYGLTEARYYTVLFGVSRSLGICSQLIWDRALGLALERPKSVTMDWLEAHCKKASSA
binds: [4] | [5] | [1] | [2]

B3: isocitrate dehydrogenase (IDH) subunit IDH2 (protein, UniProt P93032 1-367)
chain: MSRQSFSLLKNLRSIASGSKIQTRSVTYMPRPGDGKPRPVTLIPGDGVGPLVTNAVQQVMEAMHAPVYFEPFEVHGDMKSLPEGLLESIKKNKVCLKGGLKTPVGGGVSSLNVNLRKELDLFASLVNCFNLPGLASRHENVDIVVIRENTEGEYAGLEHEVVPGVVESLKVITKFCSERIAKYAFEYAYLNNRKKVTAVHKANIMKLADGLFLESCQEVAKKYPSIAYNEIIVDNCCMQLVARPEQFDVMVTPNLYGNLVANTAAGIAGGTGVMPGGNVGAEYAVFEQGASAGNVGKDTTEEQKNANPVALLLSSAMMLRHLQFPSFADRLETAVKRVIAEGNCRTEDLGGNSTTQEVVDAVIANLD
binds: [6] | [7]
